Experimental data: article PMC11545644
No constants are given. Whether binding was seen depends on the method and setting. Some entries that bind do so weakly or less than the wild type.

Sequences of proteins named here, by UniProt entry; tags and fusion partners are left off. Residues count along the entry.
UniProt P36896, residues 24-126: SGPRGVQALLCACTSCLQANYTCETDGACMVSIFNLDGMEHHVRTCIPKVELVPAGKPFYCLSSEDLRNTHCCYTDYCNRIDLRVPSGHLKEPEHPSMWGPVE
UniProt P11021, residues 19-654: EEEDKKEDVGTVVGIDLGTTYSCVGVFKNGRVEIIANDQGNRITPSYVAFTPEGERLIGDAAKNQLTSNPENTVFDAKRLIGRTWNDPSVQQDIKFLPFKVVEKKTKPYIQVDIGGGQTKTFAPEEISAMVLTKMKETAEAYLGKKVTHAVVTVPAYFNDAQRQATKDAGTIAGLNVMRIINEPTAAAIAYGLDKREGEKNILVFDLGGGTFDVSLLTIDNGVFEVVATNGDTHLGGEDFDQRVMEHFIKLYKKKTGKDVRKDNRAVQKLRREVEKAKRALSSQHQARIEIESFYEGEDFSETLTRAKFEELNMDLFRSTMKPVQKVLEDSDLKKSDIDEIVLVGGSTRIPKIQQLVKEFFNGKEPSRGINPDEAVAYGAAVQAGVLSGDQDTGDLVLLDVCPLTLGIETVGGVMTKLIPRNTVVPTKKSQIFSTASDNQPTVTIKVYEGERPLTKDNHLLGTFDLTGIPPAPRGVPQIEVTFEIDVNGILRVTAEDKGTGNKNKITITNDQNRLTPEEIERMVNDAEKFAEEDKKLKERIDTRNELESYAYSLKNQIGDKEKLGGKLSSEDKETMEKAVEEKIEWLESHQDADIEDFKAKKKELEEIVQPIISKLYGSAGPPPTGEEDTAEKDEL
UniProt P13385, residues 31-150: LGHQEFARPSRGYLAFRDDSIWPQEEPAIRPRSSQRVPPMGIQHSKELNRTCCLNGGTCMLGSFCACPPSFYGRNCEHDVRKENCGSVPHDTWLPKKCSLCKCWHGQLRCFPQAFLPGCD
UniProt P51864: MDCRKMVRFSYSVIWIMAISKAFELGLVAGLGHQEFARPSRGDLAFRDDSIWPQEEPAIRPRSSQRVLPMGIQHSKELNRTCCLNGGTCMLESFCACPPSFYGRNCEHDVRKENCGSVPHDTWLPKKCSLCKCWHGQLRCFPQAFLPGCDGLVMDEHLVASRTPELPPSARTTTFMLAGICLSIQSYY

Tests used:
Assay in all cases: ELISA; Nodal, GRP78 or Alk4 passively adsorbed to 96-well plates at 50 ng/50 uL/well overnight at 4 C, blocked with HFBTS; hCR1 or hCR3 added at 50 ng/50 uL/well alone or mixed in equal concentrations, 30 min at RT; bound hCR1 or hCR3 detected with NCI 5G1-1 or NCI 5G11-2 MoAb and anti-mouse IgG-HRP, OD 450 nm; both purified
[1] = biological target: recombinant human Alk4 (human) (UniProt P36896)
[2] = biological target: recombinant human GRP78 (human) (UniProt P11021)
[3] = biological target: T1, recombinant human NODAL (human) (UniProt Q96S42)
T1 sequence: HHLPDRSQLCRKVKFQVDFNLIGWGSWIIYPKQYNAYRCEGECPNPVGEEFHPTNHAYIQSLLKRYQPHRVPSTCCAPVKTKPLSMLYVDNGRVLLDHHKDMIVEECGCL

Measured: binding

recombinant human Cripto-1 (GenScript hCR1) (from UniProt P13385 31-150)
binds: all assays above

recombinant human Cripto-3 (MyBioSource hCR3) (from UniProt P51864 1-188)
binds: all assays above
